According to paper PMC12670160, “A drug-repurposing screen of FDA- and EMA-approved drugs identifies two NF-κB inhibitors active against eumycetoma” (Journal of Antimicrobial Chemotherapy, 2025):
Structures can show the parent of a compound that is named as a salt. Hit rate of the full screen: of about 5,300 compounds, about 130 (2.5%) showed an effect of 50% or more. The list shows a part of the results.

Tested on: M. mycetomatis strain mm55
Details: primary screen, metabolic activity vs growth control; 96 h, 2 µM; inhibitor

Row | Structure (SMILES) | % viability [%]
1 | CSc1ccc(OCc2ncc([N+](=O)[O-])n2C)cc1 [ONC0003366, fexinidazole] | 58.02
2 | C[N+](C)(C)CCOC(=O)CCC(=O)OCC[N+](C)(C)C [ONC0002196, succinylcholinechloride] | 99.85
3 | CC/C(=C(/c1ccc(/C=C/C(=O)O)cc1)c1ccc2[nH]ncc2c1)c1ccc(F)cc1Cl [ONC0001219, brilanestrant] | 87.31
4 | O=C(Nc1cnccc1Cl)N1CCN(Cc2ccc3c(c2)OC(F)(F)O3)CC1 [ONC0001299, jnj42165279] | 60.28
5 | COc1cc(C(C)=O)ccc1O [ONC0004664, apocynin acetovanillone] | 85.85
6 | Cc1ccsc1/C=C/C1=NCCCN1C [ONC0002322, morantel citrate] | 89.21
7 | CCCn1c(=O)[nH]c2nc(-c3ccc(S(=O)(=O)O)cc3)[nH]c2c1=O [ONC0002649, psb1115] | 72.06
8 | CO[C@H]1CC[C@H](N(c2cc(C3=CCCCC3)sc2C(=O)O)C(=O)[C@H]2CC[C@H](C)CC2)CC1 [ONC0000943, vch916] | 78.62
9 | Cc1ccc(S(=O)(=O)NC(=O)NN2CCCCCC2)cc1 [ONC0000684, tolazamide] | 114.3
10 | COc1cccc(OC)c1C(=O)N[C@@H]1C(=O)N2[C@@H]1SC(C)(C)[C@@H]2C(=O)O [ONC0000519, methicillin sodium] | 70.35
11 | Cn1cccc1/C=C1\C(=O)NC(=O)c2ccccc21 [ONC0001666, byk204165] | 98.84
12 | COc1cc2c(CCNC(C)=O)c[nH]c2cc1Cl [ONC0001544, 6chloromelatonin] | 92.34
13 | O=C(c1cc2ccccc2o1)N1CCN(Cc2ccccc2)CC1 [ONC0002374, befuraline] | 64.34
14 | C[C@]12CC[C@@H]3c4ccc(OS(=O)(=O)O)cc4CC[C@H]3[C@@H]1CCC2=O [ONC0003955, estropipate] | 73.24
15 | Cc1ncc(Cl)cc1NCc1ccc(C(=O)N[C@@H](CC2CCCC2)C(=O)NC2CC2)s1 [ONC0001132, gsk 2830371] | 53.2
16 | O=C(O)c1ccccc1Nc1ccc(CCc2ccc(Cl)c(Cl)c2)cc1 [ONC0005393, pd118057] | 109.5
17 | C=CC(C)(C)c1cc(/C=C/C(=O)c2ccc(O)cc2)c(OC)cc1O [ONC0003443, licochalcone a] | 81.44
18 | CCCCCCCCCCCCc1ccc(S(=O)(=O)Nc2nncs2)cc1 [ONC0000344, pht427] | 87.97
19 | OC(CCCN1CCCCC1)(c1ccccc1)c1ccccc1 [ONC0003777, diphenidol] | 100.5
20 | CCN(CC)CCOC(=O)C(c1ccccc1)c1ccccc1 [ONC0003163, adiphenine hydrochloride] | 80.17

A second format for part of the listing above:
Row,Structure (SMILES),% viability [%]
9,"Cc1ccc(S(=O)(=O)NC(=O)NN2CCCCCC2)cc1 [ONC0000684, tolazamide]",114.3
10,"COc1cccc(OC)c1C(=O)N[C@@H]1C(=O)N2[C@@H]1SC(C)(C)[C@@H]2C(=O)O [ONC0000519, methicillin sodium]",70.35
11,"Cn1cccc1/C=C1\C(=O)NC(=O)c2ccccc21 [ONC0001666, byk204165]",98.84
12,"COc1cc2c(CCNC(C)=O)c[nH]c2cc1Cl [ONC0001544, 6chloromelatonin]",92.34
13,"O=C(c1cc2ccccc2o1)N1CCN(Cc2ccccc2)CC1 [ONC0002374, befuraline]",64.34
14,"C[C@]12CC[C@@H]3c4ccc(OS(=O)(=O)O)cc4CC[C@H]3[C@@H]1CCC2=O [ONC0003955, estropipate]",73.24
15,"Cc1ncc(Cl)cc1NCc1ccc(C(=O)N[C@@H](CC2CCCC2)C(=O)NC2CC2)s1 [ONC0001132, gsk 2830371]",53.2
16,"O=C(O)c1ccccc1Nc1ccc(CCc2ccc(Cl)c(Cl)c2)cc1 [ONC0005393, pd118057]",109.5
17,"C=CC(C)(C)c1cc(/C=C/C(=O)c2ccc(O)cc2)c(OC)cc1O [ONC0003443, licochalcone a]",81.44
18,"CCCCCCCCCCCCc1ccc(S(=O)(=O)Nc2nncs2)cc1 [ONC0000344, pht427]",87.97
19,"OC(CCCN1CCCCC1)(c1ccccc1)c1ccccc1 [ONC0003777, diphenidol]",100.5
20,"CCN(CC)CCOC(=O)C(c1ccccc1)c1ccccc1 [ONC0003163, adiphenine hydrochloride]",80.17

The results go on.

Row | Structure (SMILES) | % viability [%]
21 | CC1c2ccccc2CN1CC1=NCCN1 (stereo not shown) [ONC0000423, brl44408] | 59.3
22 | C[C@H]1[C@H](C)CC[C@]2(C(=O)O)CC[C@]3(C)C(=CC[C@@H]4[C@@]5(C)C[C@@H](O)[C@H](O)[C@@](C)(CO)[C@@H]5CC[C@]43C)[C@H]12 [ONC0003267, asiatic acid] | 63.99
23 | c1ccc(Oc2cccnc2)cc1 [ONC0002752, 3phenoxypyridine] | 89.97
24 | CCOC(=O)c1ccc(N)cc1 [ONC0003279, benzocaine] | 69.74
25 | NCCc1c[nH]c2ccc(C(N)=O)cc12 [ONC0000084, 5carboxamidotryptamine] | 55.69
26 | CN1CCN(c2c(F)cc3c(=O)c(C(=O)O)cn4c3c2OCN4C)CC1 [ONC0005542, marbofloxacin] | 102.2
27 | N=C(N)NCCCC(NC(=O)C1CCCN1C(=O)C1CSSCCC(=O)NC(Cc2ccc(O)cc2)C(=O)NC(Cc2ccccc2)C(=O)NC(CCC(N)=O)C(=O)NC(CC(N)=O)C(=O)N1)C(=O)NCC(N)=O (stereo not shown) [ONC0002256, desmopressin acetate] | 64.94
28 | CC(C)(C)CC(C)(C)c1ccc(O)c(Cc2ccc(Cl)cc2Cl)c1 [ONC0003090, clofoctol] | 74.09
29 | Cc1ccc([N+](=O)[O-])cc1S(=O)(=O)N(C)/N=C/c1cnc2ccc(Br)cn12 [ONC0004555, pik75] | 74.38
30 | Cc1noc(C)c1-c1ccc(-c2cc(C(N)=O)c(NC(N)=O)s2)c(O[C@H]2CCNC2)c1 [ONC0001292, azd3264] | 69.25
31 | COc1cc(-c2ccc(=O)[nH]n2)ccc1OC(F)F [ONC0001484, zardaverine] | 83.38
32 | CC[N+](CC)(CC)CC(=O)Nc1c(C)cccc1C [ONC0003058, qx314] | 58.74
33 | c1ccc(COCCCc2c[nH]cn2)cc1 [ONC0003620, proxyfan] | 62.87
34 | CC(C)(N)C(=O)N[C@H](COCc1ccccc1)C(=O)N1CCC2(CC1)CN(S(C)(=O)=O)c1ccccc12 [ONC0000930, ibutamoren mesylate] | 66.04
35 | CCN(c1cc(C#CCN2CCOCC2)cc(C(=O)NCc2c(C)cc(C)[nH]c2=O)c1C)[C@H]1CC[C@H](N(C)CCOC)CC1 [ONC0003950, epz011989] | 86.7
36 | CCCC(CCC)C(=O)OC1C[C@H]2CC[C@@H](C1)[N+]2(C)C (stereo partly shown) [ONC0005108, anisotropine methylbromide] | 92.02
37 | c1cc(OCCN2CCCCC2)cc(-c2n[nH]c3ccc(-c4nc[nH]n4)cc23)c1 [ONC0000900, cc401 hydrochloride] | 73.26
38 | C#Cc1c[nH]c(=O)[nH]c1=O [ONC0005377, eniluracil] | 108
39 | CC(=O)CC/C=C(\C)CC/C=C(\C)CC/C=C(\C)CCC=C(C)C [ONC0002238, teprenone] | 74.49
40 | CCCCNc1c(C(=O)OCC)c(C)nc2c1cnn2CC [ONC0002541, tracazolate] | 76.49
